Source: patent publication US20130018193A1, “DEUTERATED PIRFENIDONE” (CONCERT Pharmaceuticals Inc., priority 2007, published 2013)
Some entries share one result that the patent states for a list of compounds.

Legend:
[1] = Pharmacokinetics of Compounds 106 and 108 after intravenous and oral dosing in chimpanzees; type: in vivo; settings: chimps, intravenous administration
Protocol: Intravenous dosing was performed by infusion over a 30 minute period. Blood samples from the orally dosed chimps were collected just prior to dosing and at 15, 30, 60, 90, 120, 240, 360, 480, 600, 720 and 1440 minutes post-dosing. Blood samples (4.5 ml) from the intravenously dosed chimps were collected just prior to infusion, at 15 and 29.5 minutes after the start of infusion, and then at 6, 15, 30, 45, 60, 120, 240, 360, 480, 600, 720 and 1440 minutes post-infusion. Plasma was isolated and prepared for analysis by mixing 0.1 ml of plasma with 300 μL of indiplon in (50 ng/ml in acetonitrile/water; 90/10; v/v) as an internal standard, vortexing and then centrifuging to remove any precipitated protein.
Plasma samples (10 μl) were injected to a Zorbax SB-C8 (Rapid Resolution) column (2.1×30 mm, 3.5 μm). The initial mobile phase condition was 100% A (water with 0.1% formic acid) and 0% B (acetonitrile with 0.1% formic acid) with a flow rate at 0.75 mL/min. Mobile phase B was allowed to reach 100% in 0.75 minutes and held for 1.0 minute before ramping back to 0% in another 0.1 minute. The overall run time was 3 minutes. […] Plasma concentration data for each compound in each animal was individually fitted to a 2-compartment model using WinNonLin version 5.2 (PK Model #9) with weighting of 1/y.

[2] = Metabolic stability in pooled human liver microsomes; type: in vitro ADME; settings: human liver microsomes 3.0 mg/mL, 0.5 μM compound, after 30 minutes of exposure

SMILES: [2H]c1cc(C([2H])([2H])[2H])c([2H])n(-c2ccccc2)c1=O [Compound 106, 3,6-Dideutero-5-(methyl-d3)-1-phenylpyridin-2(1H)-one]
- decrease in clearance rate as compared to pirfenidone [1]: greater than 30%
- compound remained unmetabolized [2]: greater than 75%

SMILES: [2H]C([2H])([2H])c1ccc(=O)n(-c2ccccc2)c1 [Compound 108, 5-(Methyl-d3)-1-phenylpyridin-2(1H)-one]
- decrease in clearance rate as compared to pirfenidone [1]: greater than 30%

SMILES: Cc1ccc(=O)n(-c2ccccc2)c1 [Pirfenidone, 5-methyl-1-phenylpyridin-2(1H)-one]
- compound remained unmetabolized [2]: greater than 75%
